The source of these data is article PMC12466843.

Chains of the proteins cited; added tags and fusions are not shown.
UniProt Q96P20: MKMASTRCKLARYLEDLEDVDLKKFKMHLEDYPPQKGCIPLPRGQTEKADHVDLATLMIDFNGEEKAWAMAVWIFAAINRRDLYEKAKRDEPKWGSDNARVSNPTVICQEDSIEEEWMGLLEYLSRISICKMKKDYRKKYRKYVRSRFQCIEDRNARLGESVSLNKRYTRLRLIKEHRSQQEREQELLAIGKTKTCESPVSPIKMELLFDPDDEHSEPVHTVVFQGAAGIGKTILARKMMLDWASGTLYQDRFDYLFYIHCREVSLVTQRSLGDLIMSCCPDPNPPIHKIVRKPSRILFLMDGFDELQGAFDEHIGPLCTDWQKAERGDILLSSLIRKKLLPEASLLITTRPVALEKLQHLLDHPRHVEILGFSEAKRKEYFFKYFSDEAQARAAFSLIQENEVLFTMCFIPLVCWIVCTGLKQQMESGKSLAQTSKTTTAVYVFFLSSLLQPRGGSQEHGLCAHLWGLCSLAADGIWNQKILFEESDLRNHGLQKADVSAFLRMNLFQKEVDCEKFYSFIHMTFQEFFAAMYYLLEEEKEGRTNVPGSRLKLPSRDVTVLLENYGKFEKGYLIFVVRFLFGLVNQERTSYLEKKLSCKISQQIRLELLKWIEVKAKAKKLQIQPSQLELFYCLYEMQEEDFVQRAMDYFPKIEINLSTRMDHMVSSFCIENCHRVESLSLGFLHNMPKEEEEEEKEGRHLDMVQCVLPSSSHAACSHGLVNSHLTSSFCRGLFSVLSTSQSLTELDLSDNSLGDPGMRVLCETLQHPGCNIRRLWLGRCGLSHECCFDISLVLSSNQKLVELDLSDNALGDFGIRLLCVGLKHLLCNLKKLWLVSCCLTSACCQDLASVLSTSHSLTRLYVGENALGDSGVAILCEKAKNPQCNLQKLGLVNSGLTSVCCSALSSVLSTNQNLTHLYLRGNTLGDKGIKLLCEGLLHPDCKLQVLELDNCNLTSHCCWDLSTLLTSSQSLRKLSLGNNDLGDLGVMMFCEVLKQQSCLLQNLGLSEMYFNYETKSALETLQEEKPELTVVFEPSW
UniProt Q93009: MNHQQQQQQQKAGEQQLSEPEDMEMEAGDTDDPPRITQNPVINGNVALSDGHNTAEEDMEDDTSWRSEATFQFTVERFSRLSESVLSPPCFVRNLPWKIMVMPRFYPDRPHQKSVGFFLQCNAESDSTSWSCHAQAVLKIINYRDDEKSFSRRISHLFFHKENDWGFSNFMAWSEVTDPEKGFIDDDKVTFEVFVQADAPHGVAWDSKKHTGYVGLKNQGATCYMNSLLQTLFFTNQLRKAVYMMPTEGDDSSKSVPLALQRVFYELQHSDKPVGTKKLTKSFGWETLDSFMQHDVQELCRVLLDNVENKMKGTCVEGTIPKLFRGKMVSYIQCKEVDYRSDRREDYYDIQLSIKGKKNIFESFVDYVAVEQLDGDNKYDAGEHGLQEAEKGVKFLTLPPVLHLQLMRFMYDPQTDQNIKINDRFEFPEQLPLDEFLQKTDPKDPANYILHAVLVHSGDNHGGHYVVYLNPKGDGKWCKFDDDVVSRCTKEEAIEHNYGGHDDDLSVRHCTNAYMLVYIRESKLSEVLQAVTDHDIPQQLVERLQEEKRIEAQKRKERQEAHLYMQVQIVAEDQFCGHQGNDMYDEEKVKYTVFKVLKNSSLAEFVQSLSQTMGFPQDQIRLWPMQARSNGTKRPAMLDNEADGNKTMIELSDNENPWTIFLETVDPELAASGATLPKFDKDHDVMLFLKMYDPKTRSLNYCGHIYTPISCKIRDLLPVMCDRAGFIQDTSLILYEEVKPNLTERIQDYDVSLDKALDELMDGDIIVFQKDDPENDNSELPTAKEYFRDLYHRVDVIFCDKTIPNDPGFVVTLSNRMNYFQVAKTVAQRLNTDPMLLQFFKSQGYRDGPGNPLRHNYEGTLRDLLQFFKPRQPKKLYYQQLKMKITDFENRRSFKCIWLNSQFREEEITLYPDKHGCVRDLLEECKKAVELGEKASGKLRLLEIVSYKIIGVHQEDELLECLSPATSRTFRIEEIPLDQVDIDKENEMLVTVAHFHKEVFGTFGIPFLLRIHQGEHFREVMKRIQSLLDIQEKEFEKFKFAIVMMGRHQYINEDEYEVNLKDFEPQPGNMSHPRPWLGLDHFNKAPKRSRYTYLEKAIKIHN
UniProt Q93008: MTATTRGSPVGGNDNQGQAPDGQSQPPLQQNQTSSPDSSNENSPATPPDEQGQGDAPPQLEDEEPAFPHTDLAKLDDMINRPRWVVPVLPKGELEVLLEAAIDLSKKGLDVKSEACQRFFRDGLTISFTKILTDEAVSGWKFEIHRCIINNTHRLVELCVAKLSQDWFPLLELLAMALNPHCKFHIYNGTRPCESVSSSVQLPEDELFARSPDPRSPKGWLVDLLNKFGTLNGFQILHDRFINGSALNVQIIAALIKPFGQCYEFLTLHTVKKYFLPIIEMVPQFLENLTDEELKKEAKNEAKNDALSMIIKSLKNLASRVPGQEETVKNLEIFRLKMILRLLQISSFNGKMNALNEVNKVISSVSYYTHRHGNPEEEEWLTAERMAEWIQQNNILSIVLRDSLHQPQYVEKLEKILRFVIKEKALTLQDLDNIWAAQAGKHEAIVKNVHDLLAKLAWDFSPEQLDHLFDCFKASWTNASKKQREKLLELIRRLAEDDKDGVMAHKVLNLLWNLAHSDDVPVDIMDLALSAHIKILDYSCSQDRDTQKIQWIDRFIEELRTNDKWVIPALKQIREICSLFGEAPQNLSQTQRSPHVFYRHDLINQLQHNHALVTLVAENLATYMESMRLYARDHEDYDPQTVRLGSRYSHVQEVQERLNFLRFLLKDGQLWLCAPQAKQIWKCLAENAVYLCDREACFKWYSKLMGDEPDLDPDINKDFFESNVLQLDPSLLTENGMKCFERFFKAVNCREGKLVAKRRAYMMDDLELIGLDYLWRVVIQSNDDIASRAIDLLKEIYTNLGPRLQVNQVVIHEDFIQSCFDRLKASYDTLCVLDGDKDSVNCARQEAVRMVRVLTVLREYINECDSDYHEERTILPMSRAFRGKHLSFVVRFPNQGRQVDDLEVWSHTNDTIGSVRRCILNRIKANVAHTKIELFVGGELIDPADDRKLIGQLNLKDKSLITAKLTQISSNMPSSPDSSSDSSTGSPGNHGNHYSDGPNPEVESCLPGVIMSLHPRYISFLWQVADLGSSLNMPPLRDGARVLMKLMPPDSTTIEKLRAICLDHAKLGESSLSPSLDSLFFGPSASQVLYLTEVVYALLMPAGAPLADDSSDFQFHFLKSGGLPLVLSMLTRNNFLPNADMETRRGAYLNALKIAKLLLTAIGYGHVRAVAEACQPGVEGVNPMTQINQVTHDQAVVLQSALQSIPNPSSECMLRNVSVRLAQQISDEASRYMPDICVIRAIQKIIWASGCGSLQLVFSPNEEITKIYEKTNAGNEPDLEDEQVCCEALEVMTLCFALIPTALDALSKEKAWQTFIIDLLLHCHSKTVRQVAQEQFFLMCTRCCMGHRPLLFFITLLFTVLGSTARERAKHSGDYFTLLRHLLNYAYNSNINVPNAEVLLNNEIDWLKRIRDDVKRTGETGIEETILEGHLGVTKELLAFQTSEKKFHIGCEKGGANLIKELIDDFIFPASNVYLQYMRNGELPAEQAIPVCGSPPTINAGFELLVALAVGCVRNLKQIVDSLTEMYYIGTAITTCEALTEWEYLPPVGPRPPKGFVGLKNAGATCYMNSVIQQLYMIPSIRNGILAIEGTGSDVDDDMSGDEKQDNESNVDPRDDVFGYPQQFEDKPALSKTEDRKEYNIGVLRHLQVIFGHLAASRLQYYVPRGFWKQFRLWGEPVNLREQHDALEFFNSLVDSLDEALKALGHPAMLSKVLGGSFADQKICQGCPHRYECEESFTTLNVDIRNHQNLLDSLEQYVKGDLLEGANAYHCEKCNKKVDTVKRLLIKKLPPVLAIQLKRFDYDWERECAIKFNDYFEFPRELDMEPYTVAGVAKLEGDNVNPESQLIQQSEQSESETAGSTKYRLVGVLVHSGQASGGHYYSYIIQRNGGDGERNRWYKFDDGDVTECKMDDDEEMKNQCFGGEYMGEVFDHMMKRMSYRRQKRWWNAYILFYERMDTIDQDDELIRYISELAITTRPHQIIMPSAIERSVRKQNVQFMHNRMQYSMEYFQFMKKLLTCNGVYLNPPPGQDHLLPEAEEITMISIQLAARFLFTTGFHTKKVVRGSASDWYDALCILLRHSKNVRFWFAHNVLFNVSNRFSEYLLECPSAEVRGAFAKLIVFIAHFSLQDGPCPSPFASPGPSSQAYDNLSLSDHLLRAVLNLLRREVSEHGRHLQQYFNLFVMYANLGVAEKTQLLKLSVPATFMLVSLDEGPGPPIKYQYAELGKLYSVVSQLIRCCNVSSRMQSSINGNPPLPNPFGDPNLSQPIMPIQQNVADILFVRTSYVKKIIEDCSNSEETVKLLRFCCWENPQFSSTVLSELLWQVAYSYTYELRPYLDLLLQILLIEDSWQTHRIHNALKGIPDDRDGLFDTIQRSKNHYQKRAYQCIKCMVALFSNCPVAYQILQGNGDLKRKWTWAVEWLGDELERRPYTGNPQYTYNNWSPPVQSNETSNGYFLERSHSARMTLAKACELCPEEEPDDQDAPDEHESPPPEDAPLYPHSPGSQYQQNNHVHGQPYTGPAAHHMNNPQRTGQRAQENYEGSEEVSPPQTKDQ
UniProt P46736: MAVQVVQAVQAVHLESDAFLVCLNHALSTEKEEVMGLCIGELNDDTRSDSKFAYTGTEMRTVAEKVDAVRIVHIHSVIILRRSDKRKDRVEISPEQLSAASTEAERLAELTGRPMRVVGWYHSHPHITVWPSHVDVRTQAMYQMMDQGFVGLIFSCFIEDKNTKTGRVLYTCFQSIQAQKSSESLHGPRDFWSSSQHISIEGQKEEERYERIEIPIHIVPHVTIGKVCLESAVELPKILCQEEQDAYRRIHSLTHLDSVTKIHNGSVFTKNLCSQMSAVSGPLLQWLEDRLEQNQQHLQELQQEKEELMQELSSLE
UniProt O15372: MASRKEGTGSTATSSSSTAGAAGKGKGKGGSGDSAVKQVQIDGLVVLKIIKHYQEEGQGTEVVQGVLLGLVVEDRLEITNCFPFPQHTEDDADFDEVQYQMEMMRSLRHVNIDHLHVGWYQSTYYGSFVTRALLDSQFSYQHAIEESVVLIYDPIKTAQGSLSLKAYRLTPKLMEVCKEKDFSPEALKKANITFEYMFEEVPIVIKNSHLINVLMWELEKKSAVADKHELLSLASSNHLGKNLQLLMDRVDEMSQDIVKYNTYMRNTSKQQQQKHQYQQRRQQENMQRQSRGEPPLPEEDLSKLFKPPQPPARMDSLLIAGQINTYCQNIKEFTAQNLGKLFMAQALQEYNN

No constants are given. Whether binding was seen depends on the method and setting. In cells and extracts the contact can be indirect. These calls come from enrichment with a bait or labelling near it, and not all partners need be listed.

This assay concerns the target Flag-tagged human NLRP3 (human) (UniProt Q96P20). The experiment in a line: affinity purification with mass spectrometry; lysates of THP-1 cells expressing Flag-tagged NLRP3 incubated with anti-Flag M2 beads for 6 hours at 4°C; IP lysis buffer (150 mM NaCl, 100 mM tris-HCl pH 8.0, 0.5% Triton X-100, 2 mM EDTA); LTQ-Orbitrap Velos.

For the molecule “USP7, endogenous in THP-1 cells (from UniProt Q93009 1-1102) (enzyme)”, the binding entry is “binds”.

Take “USP9X, endogenous in THP-1 cells (from UniProt Q93008 1-2554) (enzyme)”: the binding result is “binds”.

Take “BRCC3 (BRCA1/BRCA2-containing complex subunit 3), endogenous in THP-1 cells (from UniProt P46736 1-316) (enzyme)”: the binding entry is given as “binds”.

As for “EIF3H (eukaryotic translation initiation factor 3 subunit H), endogenous in THP-1 cells (from UniProt O15372 1-352)”, the binding entry is recorded as “binds”.

B1: USP13 (ubiquitin-specific protease 13), endogenous in THP-1 cells (enzyme, UniProt Q92995 1-863)
chain: MQRRGALFGMPGGSGGRKMAAGDIGELLVPHMPTIRVPRSGDRVYKNECAFSYDSPNSEGGLYVCMNTFLAFGREHVERHFRKTGQSVYMHLKRHVREKVRGASGGALPKRRNSKIFLDLDTDDDLNSDDYEYEDEAKLVIFPDHYEIALPNIEELPALVTIACDAVLSSKSPYRKQDPDTWENELPVSKYANNLTQLDNGVRIPPSGWKCARCDLRENLWLNLTDGSVLCGKWFFDSSGGNGHALEHYRDMGYPLAVKLGTITPDGADVYSFQEEEPVLDPHLAKHLAHFGIDMLHMHGTENGLQDNDIKLRVSEWEVIQESGTKLKPMYGPGYTGLKNLGNSCYLSSVMQAIFSIPEFQRAYVGNLPRIFDYSPLDPTQDFNTQMTKLGHGLLSGQYSKPPVKSELIEQVMKEEHKPQQNGISPRMFKAFVSKSHPEFSSNRQQDAQEFFLHLVNLVERNRIGSENPSDVFRFLVEERIQCCQTRKVRYTERVDYLMQLPVAMEAATNKDELIAYELTRREAEANRRPLPELVRAKIPFSACLQAFSEPENVDDFWSSALQAKSAGVKTSRFASFPEYLVVQIKKFTFGLDWVPKKFDVSIDMPDLLDINHLRARGLQPGEEELPDISPPIVIPDDSKDRLMNQLIDPSDIDESSVMQLAEMGFPLEACRKAVYFTGNMGAEVAFNWIIVHMEEPDFAEPLTMPGYGGAASAGASVFGASGLDNQPPEEIVAIITSMGFQRNQAIQALRATNNNLERALDWIFSHPEFEEDSDFVIEMENNANANIISEAKPEGPRVKDGSGTYELFAFISHMGTSTMSGHYICHIKKEGRWVIYNDHKVCASERPPKDLGYMYFYRRIPS
For B1, the binding entry was “binds”.
